This note sets out measurements from PubChem BioAssay AID2685 (National Center for Advancing Translational Sciences (NCATS), 2010).

The assay is described as follows: qHTS Assay for Lipid Storage Modulators in Drosophila S3 Cells.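 For cell number change: cells counted by Cell Tracker Red CMTPX staining in the red channel.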 Conditions: BODIPY lipid droplet fluorescence, 18-24 h; for cell number change: measured here: cell count max response, cells fed with added oleic acid. In short, it runs like this: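 Drosophila S3 cells got compounds at several concentrations plus oleic acid (400 uM solution). Laser-scanning cytometry with 488 nm excitation read lipid droplets at 500-530 nm and cells at 575-640 nm. Percent activity was relative to 20 uM Triacsin C.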

Where [1] appears, read: measured here: lipid fluorescence (Fed channel) AC50, cells fed with added oleic acid.
Setting [2] is: measured here: cell number channel AC50, cells fed with added oleic acid.

The list shows a part of the results. Shown are side measurements of this screen, not its main read-out; they come without a call. Most of these compounds were active or inconclusive in the main read-out, so they are no random draw. Words in brackets tell the shape of the fitted curve; partial curves, single points and poor fits give uncertain potencies.

`Cc1ccc(C)c(S(=O)(=O)NCC(c2ccc3c(c2)OCO3)N2CCOCC2)c1` (configuration not stated): the cell number change came out at 28.2%.

For orientation: AC50 means the midpoint of the concentration-response curve, whichever way the signal moves. With `O=C(O)Cn1nc(-c2ccccc2)ccc1=O`, the cell number change was 3.17%. In addition, the half-maximal activity concentration (AC50) under setting [1] was 18.4 µM [rising, partial curve]. `CCC(=O)Nc1ccc(C=C(C(C)=O)C(C)=O)cc1`: the cell number change was -33.7%. In addition, the half-maximal activity concentration (AC50) under setting [2] is 0.82 µM [falling, full curve, poor fit]. The AC50 under setting [1] was 0.731 µM [falling, full curve, poor fit].

As to `O=C(CSc1nc2ccccc2c(=O)n1Cc1ccc(C(=O)NC2CC2)cc1)NCc1ccco1`, the cell number change is -167%.

Take `CSc1nc(N2CCOCC2)c2ccccc2n1`: the AC50 was 6.51 µM [rising, single point] under setting [2] and 6.51 µM [rising, partial curve] under setting [1]. Consider `COc1cccc(C(=O)COc2cccc(NC(=O)c3cccc([N+](=O)[O-])c3)c2)c1`, for which the half-maximal activity concentration (AC50) under setting [1] was 16.4 µM [falling, partial curve]. On to `COC(=O)c1cc(S(=O)(=O)N2CCN(c3ccc(OC)cc3)CC2)cn1C`, for which the cell number change is 47.7%. Besides, the AC50 under setting [2] was 20.6 µM [rising, single point]. With `COC(=O)[C@@]12CCCN1[C@H](c1ccc(-c3ccccc3)cc1)[C@H]1C(=O)N(C)C(=O)[C@H]12`, the cell number change is -23.1%. Besides, the half-maximal activity concentration (AC50) under setting [1] was 0.0092 µM [rising, full curve, poor fit]. As to `COc1ccccc1NC(=O)NCc1nc(-c2ccc(C(F)(F)F)cc2)no1`, the cell number change worked out at 57.6%. Besides, the AC50 under setting [2] was 5.8 µM [rising, partial curve]. With `Cc1ccc(CNCc2ccc3c(c2)OCO3)cc1`, the cell number change is -1.06%. The AC50 under setting [1] was 29.1 µM [rising, single point]. As to `Cc1cc(=O)oc(C)c1C(=O)Nc1ccc2nsnc2c1`, the cell number change turned out to be 23.5%. Further, under setting [1], the AC50 is 18.4 µM [falling, partial curve]. As for `Cc1cc(Br)ccc1OCCOCCN1CCCC1`, the cell number change was 7.94%. Same read-out and setting: the value for `CCc1ccccc1NC(=O)CN(C)C(=O)c1cc(C2CC2)nn1-c1ccccc1` was -12%.

On to `CCCN(CCC)C(=O)CCSCCC(=O)N(CCC)CCC`, for which, under setting [1], the AC50 is 20.6 µM [falling, partial curve]. For the molecule `CCC/C(=N/NC(=O)c1ccc2c(c1)OCO2)c1cccs1`, the cell number change is -8.73%. Further, under setting [1], the concentration at half-maximal activity (AC50) is 51.7 µM [rising, partial curve, poor fit]. As to `C/C(N)=C(/C#N)C(=O)COC(=O)CC12CC3CC(CC(C3)C1)C2`, the cell number change is -5.01%. Further, under setting [1], the half-maximal activity concentration (AC50) is 0.0058 µM [falling, full curve, poor fit]. In the case of `COc1ccc(C(=O)CSc2nnc(COc3ccc(C#N)cc3)n2-c2ccccc2)cc1`, the cell number change stood at 36.5%. Further, under setting [2], the AC50 was 16.4 µM [rising, single point]. Consider `CCN(CC)c1nc(Oc2ccc(C(=O)OC)cc2)nc(N2CCOCC2)n1`, for which the cell number change came out at 13.2%. Further, under setting [2], the AC50 is 6.51 µM [falling, single point]. Moreover, the AC50 under setting [1] was 6.51 µM [falling, single point].
